This note sets out measurements from PMC3526283.

The target of series [1] is DNA polymerase beta (Polβ) (Homo sapiens) (UniProt P06746). As to the kind of experiment: EMSA. To be noted: 100 nM protein; EMSA: 50 mM Tris-HCl pH 7.5, 0.1 mg/ml BSA, 1 mM DTT, 4% glycerol, 5 nM DNA, 10 min at 30°C; recombinant protein; label: 32P at 5' end of Sp1C.
For series [2] the target is unchanged. As to the kind of experiment: DNase I footprinting. To be noted: 100 µM dTTP, 2.5 mM MgCl2, hardly visible; footprinting: same buffer, 30 nM DNA, 37°C (2.5 mM MgCl2 and 100 µM dNTP where stated); recombinant protein; label: 32P at 5' end of FP-T.
Series [3] concerns the target DNA polymerase mu (Polµ) (Homo sapiens) (UniProt Q9NP87). Kind of series: DNase I footprinting. Particulars: 100 µM dTTP, 2.5 mM MgCl2, hardly visible; footprinting: same buffer, 30 nM DNA, 37°C (2.5 mM MgCl2 and 100 µM dNTP where stated); recombinant protein; label: 32P at 5' end of FP-T.

The exact form of at least one protein or probe is not confirmed. A weaker result is weaker than the reference pair of the same experiment.

As to “AGAAGTGTATCTCGTACTCACTGTGATC / GATCACAGTGAGTAC / AGATACACTTCT [1-nt gap Sp1C/T28/D12, 5'-OH]”, in series [1], the binding result is given as “binds more weakly”.
With “GGCAGCTTGGATCTTGTCGAAAAACGTCAACATTCGCCTAGGCTTCGGCAATACTGAGGTCTTGTCGAAAAACGTCAACATTGCGTGGCC / GGCCACGCAATGTTGACGTTTTTCGACAAGACCTCAGTAT / GCCGAAGCCTAGGCGAATGTTGACGTTTTTCGACAAGATCCAAGCTGCC [footprint 1-nt gap FP-T/FP-P/FP-D, 5'-OH]”, the binding result in series [2] and in series [3] was “binds more weakly” throughout.
